Some of the results follow.
compound: CN(C)CC(=O)Nc1ccc2[nH]c(=O)c3ccccc3c2c1; experiment: log2 fold change, soluble protein after heating vs DMSO (PISA); higher = thermal stabilisation; K562 cells, 10 uM, 30 min; active = over 0.2 and 3.5 SD of the protein, either way, in both replicates (recomputed)
In short: (§1)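 Thermal stability values are relative to control samples and come from duplicates. They are expressed as log2 fold changes. For measurement, K562 cells (2×10^6 cells/mL) received 10 μM compound for 30 min, and aliquots were heated for 3 min over 48°C-58°C, pooled, and extracted at 4°C in PBS with 0.5% NP-40. Soluble protein, the supernatant after 21,000xg for 90 min, was quantified by TMTpro 16plex LC-MS/MS with equalised channel sums.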

The chains behind the UniProt entries cited, without tags or fusion partners. Where a name states a change or a piece, a line headed by the entry shows the natural chain unless it says otherwise.
UniProt O75937: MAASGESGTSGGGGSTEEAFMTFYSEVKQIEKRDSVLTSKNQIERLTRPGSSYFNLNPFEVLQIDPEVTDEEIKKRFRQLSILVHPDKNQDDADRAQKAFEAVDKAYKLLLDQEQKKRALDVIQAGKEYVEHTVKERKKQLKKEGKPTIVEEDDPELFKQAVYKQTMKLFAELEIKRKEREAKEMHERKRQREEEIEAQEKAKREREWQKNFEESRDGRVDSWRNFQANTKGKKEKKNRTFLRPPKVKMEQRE
UniProt O75521: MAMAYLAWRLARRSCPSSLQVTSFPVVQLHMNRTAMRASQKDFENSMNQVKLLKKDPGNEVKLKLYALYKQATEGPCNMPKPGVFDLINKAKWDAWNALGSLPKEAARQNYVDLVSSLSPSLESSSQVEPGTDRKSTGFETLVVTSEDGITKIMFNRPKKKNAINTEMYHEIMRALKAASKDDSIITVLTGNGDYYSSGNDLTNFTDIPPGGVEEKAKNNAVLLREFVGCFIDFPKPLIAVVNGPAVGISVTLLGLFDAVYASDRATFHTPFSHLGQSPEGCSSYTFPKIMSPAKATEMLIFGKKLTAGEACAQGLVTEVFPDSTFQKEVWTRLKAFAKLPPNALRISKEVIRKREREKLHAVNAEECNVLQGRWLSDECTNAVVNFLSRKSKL
UniProt Q5F1R6: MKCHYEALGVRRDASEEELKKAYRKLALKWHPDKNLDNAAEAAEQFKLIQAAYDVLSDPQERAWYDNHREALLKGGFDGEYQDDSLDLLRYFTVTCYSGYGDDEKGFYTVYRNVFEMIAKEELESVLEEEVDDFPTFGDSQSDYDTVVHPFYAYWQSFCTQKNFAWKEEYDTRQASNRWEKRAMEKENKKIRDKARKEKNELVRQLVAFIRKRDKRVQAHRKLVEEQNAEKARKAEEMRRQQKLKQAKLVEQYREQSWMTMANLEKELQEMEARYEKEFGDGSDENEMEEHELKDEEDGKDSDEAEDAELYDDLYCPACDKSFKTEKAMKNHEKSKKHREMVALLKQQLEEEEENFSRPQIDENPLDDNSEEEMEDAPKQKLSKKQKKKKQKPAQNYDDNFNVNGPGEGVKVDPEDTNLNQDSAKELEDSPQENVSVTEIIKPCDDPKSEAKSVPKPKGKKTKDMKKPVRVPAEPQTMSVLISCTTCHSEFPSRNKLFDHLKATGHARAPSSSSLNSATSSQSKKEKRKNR
UniProt O00429, whole entry, looked up: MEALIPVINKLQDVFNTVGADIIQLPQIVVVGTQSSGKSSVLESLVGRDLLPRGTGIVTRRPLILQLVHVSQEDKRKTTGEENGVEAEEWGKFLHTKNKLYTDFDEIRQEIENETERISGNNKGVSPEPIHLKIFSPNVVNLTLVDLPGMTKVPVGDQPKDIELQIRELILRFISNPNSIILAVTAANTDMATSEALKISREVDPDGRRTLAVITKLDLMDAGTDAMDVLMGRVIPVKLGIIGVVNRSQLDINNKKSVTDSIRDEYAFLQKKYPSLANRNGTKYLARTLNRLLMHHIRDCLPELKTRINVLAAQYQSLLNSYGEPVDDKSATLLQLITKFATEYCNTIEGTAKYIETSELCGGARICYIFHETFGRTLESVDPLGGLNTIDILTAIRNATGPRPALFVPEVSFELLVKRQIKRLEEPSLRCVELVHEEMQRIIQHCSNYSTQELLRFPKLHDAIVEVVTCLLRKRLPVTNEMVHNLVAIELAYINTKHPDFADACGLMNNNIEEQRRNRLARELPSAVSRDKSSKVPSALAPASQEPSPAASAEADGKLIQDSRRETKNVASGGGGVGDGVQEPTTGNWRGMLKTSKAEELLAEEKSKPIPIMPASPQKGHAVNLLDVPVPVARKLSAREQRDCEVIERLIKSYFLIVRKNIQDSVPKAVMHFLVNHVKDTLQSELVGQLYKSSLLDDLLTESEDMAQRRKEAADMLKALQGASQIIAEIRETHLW
UniProt P30084: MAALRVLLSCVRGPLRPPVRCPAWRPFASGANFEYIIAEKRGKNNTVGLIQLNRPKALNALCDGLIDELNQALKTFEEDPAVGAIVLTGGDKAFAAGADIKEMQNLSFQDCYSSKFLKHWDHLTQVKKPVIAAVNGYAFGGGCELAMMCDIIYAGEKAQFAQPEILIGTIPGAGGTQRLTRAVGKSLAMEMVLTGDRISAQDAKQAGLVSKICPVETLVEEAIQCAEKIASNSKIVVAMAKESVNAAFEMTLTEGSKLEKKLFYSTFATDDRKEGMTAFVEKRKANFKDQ
UniProt Q5JSL3: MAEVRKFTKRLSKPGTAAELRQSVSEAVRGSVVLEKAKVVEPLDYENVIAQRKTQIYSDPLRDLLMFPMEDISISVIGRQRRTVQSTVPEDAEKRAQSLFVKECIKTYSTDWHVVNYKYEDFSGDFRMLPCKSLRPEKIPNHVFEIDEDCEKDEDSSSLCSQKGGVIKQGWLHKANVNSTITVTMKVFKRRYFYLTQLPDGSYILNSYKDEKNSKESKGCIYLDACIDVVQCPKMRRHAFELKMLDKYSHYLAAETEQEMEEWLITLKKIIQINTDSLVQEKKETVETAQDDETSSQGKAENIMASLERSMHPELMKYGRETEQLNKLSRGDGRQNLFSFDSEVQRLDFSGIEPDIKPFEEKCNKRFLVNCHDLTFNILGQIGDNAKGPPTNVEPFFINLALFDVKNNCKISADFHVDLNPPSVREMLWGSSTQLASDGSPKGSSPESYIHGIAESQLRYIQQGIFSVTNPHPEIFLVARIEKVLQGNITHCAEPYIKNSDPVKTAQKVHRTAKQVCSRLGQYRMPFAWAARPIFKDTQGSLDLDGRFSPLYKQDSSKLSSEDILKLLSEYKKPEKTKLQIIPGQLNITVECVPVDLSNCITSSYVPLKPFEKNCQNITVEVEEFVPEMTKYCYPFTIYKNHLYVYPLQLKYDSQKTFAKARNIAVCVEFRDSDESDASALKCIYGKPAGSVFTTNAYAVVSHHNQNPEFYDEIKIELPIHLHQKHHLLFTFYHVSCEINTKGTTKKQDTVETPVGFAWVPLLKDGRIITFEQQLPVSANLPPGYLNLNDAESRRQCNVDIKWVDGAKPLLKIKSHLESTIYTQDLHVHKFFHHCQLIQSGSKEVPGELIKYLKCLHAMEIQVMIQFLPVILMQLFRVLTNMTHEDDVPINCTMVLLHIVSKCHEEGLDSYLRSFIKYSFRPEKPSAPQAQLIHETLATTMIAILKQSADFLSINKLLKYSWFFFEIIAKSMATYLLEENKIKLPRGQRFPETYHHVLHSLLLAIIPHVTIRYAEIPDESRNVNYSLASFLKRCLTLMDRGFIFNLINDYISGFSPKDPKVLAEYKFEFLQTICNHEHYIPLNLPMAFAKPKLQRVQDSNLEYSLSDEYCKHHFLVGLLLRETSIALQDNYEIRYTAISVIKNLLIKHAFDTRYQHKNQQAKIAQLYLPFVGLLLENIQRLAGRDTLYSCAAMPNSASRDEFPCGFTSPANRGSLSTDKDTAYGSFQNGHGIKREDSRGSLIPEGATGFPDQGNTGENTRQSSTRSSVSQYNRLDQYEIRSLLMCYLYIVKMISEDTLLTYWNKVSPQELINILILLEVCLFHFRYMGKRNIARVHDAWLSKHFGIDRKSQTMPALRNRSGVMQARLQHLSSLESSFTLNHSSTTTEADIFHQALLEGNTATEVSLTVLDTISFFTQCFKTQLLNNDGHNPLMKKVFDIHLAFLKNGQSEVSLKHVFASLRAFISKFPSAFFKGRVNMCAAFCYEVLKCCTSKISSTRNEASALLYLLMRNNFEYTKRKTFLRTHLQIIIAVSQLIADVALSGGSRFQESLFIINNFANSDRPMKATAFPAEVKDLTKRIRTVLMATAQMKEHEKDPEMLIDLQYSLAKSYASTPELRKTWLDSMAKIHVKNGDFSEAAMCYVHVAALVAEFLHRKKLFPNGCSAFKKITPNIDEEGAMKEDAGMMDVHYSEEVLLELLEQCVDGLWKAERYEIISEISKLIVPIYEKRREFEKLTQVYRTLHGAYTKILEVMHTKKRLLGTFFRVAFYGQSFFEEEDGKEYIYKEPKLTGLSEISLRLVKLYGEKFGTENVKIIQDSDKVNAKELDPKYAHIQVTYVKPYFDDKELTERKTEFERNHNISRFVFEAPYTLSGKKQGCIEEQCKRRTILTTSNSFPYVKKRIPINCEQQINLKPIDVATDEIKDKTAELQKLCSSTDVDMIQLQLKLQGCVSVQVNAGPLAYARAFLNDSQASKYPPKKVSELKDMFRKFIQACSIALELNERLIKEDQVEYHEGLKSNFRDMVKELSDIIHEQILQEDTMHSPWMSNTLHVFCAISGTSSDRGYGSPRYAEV
UniProt Q9BVJ7: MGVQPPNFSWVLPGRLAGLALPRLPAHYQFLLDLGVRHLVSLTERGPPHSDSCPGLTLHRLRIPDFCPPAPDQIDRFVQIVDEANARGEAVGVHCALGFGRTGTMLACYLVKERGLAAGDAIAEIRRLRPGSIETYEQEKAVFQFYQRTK
UniProt P51452: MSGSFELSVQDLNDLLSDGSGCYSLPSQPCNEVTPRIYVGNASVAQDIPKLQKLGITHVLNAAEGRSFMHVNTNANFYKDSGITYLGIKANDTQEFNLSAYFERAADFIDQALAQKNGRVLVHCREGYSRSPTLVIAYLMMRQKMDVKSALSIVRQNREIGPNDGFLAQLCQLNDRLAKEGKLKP
UniProt Q7L8W6: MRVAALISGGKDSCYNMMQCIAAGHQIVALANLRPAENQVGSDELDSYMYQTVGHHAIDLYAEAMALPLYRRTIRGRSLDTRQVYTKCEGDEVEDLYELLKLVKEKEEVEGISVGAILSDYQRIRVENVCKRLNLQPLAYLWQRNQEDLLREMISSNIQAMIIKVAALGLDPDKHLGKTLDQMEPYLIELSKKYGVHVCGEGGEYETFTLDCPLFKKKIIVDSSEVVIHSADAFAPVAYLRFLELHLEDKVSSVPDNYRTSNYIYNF
UniProt Q96FJ2, whole entry, looked up: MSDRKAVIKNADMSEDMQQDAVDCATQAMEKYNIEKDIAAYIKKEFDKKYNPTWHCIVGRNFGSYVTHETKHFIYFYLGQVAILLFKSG
UniProt P63167, whole entry, looked up: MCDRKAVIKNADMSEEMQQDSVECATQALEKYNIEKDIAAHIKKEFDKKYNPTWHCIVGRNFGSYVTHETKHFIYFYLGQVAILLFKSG
UniProt O75061: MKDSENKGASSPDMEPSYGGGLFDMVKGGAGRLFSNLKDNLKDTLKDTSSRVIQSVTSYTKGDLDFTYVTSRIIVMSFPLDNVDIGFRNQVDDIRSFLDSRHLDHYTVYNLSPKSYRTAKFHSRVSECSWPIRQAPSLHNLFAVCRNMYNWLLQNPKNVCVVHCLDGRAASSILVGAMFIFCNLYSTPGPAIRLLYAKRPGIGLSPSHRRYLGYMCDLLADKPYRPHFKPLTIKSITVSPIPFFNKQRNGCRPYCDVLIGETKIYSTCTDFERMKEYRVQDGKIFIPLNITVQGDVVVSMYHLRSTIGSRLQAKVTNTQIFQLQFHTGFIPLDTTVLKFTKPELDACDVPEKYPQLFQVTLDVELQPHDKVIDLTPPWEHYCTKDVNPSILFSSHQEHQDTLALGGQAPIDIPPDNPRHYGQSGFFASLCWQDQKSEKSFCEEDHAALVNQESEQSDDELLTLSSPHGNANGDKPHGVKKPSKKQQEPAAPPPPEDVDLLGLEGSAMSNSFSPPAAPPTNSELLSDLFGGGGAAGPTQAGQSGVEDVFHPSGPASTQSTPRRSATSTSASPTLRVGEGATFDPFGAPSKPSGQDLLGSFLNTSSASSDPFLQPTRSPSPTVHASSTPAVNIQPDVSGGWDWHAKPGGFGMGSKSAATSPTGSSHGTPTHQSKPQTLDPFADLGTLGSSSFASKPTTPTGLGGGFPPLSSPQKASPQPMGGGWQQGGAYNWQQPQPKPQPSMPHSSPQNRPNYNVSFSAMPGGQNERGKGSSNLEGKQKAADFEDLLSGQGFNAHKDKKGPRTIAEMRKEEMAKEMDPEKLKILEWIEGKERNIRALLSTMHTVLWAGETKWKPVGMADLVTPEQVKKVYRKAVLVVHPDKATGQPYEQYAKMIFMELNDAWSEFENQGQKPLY
UniProt Q9NVH1: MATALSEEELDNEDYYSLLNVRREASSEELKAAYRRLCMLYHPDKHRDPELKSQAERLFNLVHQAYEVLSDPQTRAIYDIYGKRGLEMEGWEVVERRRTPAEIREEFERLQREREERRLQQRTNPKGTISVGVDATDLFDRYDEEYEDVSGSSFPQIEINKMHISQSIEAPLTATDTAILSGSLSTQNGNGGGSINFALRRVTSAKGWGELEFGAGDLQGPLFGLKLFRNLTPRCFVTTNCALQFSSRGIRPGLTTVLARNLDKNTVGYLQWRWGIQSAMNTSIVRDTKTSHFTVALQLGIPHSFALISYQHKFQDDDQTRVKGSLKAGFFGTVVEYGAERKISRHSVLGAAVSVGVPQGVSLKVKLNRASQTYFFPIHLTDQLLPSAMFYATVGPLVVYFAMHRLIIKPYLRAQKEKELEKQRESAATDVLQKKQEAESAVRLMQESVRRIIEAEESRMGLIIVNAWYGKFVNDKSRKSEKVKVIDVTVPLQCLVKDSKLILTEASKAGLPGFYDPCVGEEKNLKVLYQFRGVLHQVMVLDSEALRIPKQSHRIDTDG

log2 fold change, inactive:
DPH2 (UniProt Q9BQC3) -0.002
DPY19L4 (UniProt Q7Z388) 0.207
DNAJC8 (UniProt O75937) -0.004
ECSIT (UniProt Q9BQ95) -0.017
EDARADD (UniProt Q8WWZ3) -0.043
DSTN (UniProt P60981) -0.016
ECI2 (UniProt O75521) 0.005
DSC2 (UniProt Q02487) 0.075
DNAJA3 (UniProt Q96EY1) -0.071
DNAJC21 isoform 3 (UniProt Q5F1R6) -0.035
DYNC1LI1 (UniProt Q9Y6G9) 0.022
DNM1L isoform 6 (UniProt O00429) -0.015
ECHS1 (UniProt P30084) 0.026
DNAJB11 (UniProt Q9UBS4) -0.001
EDEM1 (UniProt Q92611) -0.155
DYNLRB1 (UniProt Q9NP97) 0.017
DOCK11 (UniProt Q5JSL3) 0.041
DUSP23 (UniProt Q9BVJ7) 0.068
ECM1 isoform 4 (UniProt Q16610) 0.02
DPP3 (UniProt Q9NY33) 0.022
DPP9 isoform 2 (UniProt Q86TI2) 0.034
DNAJC12 (UniProt Q9UKB3) 0.056
DUSP3 (UniProt P51452) 0.031
DUT (UniProt P33316) 0.01
DPH6 (UniProt Q7L8W6) 0.022
DYNLL2 (UniProt Q96FJ2) 0.015
DNAJC10 (UniProt Q8IXB1) -0.024
DYNLL1 (UniProt P63167) -0.044
DNAJC6 isoform 2 (UniProt O75061) -0.006
EDEM3 (UniProt Q9BZQ6) -0.048
DUS4L (UniProt O95620) -0.029
DNAJC11 (UniProt Q9NVH1) 0.013
DNAJC17 (UniProt Q9NVM6) 0.027

compound: CN(CCOC1=CC=C(C=C1)C[C@H]2C(=O)NC(=O)S2)C3=CC=CC=N3 (racemic) [rosiglitazone]; experiment: as above
In short: as §1

log2 fold change, inactive:
DPH2 (UniProt Q9BQC3) 0.011
DPY19L4 (UniProt Q7Z388) 0.053
DNAJC8 (UniProt O75937) 0.037
ECSIT (UniProt Q9BQ95) -0.008
EDARADD (UniProt Q8WWZ3) 0.098
DSTN (UniProt P60981) 0.009
ECI2 (UniProt O75521) 0.007
DSC2 (UniProt Q02487) 0.038
DNAJA3 (UniProt Q96EY1) 0.058
DNAJC21 isoform 3 (UniProt Q5F1R6) 0.067
DYNC1LI1 (UniProt Q9Y6G9) 0.027
DNM1L isoform 6 (UniProt O00429) 0.023
ECHS1 (UniProt P30084) 0.013
DNAJB11 (UniProt Q9UBS4) -0.007
EDEM1 (UniProt Q92611) -0.05
DYNLRB1 (UniProt Q9NP97) -0.024
DOCK11 (UniProt Q5JSL3) 0.035
DUSP23 (UniProt Q9BVJ7) -0.024
ECM1 isoform 4 (UniProt Q16610) 0.007
DPP3 (UniProt Q9NY33) 0.07
DPP9 isoform 2 (UniProt Q86TI2) 0.053
DNAJC12 (UniProt Q9UKB3) 0.018
DUSP3 (UniProt P51452) 0.02
DUT (UniProt P33316) 0.017
DPH6 (UniProt Q7L8W6) 0.007
DYNLL2 (UniProt Q96FJ2) -0.051
DNAJC10 (UniProt Q8IXB1) -0.084
DYNLL1 (UniProt P63167) -0.031
DNAJC6 isoform 2 (UniProt O75061) 0.034
EDEM3 (UniProt Q9BZQ6) -0.054
DUS4L (UniProt O95620) 0.047
DNAJC11 (UniProt Q9NVH1) 0.02
DNAJC17 (UniProt Q9NVM6) -0.013

compound: CN1C2=C(C3=C1C(=O)N(N=C3)CC4=CC(=CC=C4)N)SC(=C2)S(=O)C; experiment: as above
In short: as §1

log2 fold change, inactive:
DPH2 (UniProt Q9BQC3) -0.006
DPY19L4 (UniProt Q7Z388) 0.13
DNAJC8 (UniProt O75937) -0.075
ECSIT (UniProt Q9BQ95) 0.084
EDARADD (UniProt Q8WWZ3) -0.051
DSTN (UniProt P60981) -0.057
ECI2 (UniProt O75521) -0.081
DSC2 (UniProt Q02487) 0.194
DNAJA3 (UniProt Q96EY1) -0.022
DNAJC21 isoform 3 (UniProt Q5F1R6) 0.044
DYNC1LI1 (UniProt Q9Y6G9) -0.007
DNM1L isoform 6 (UniProt O00429) -0.053
ECHS1 (UniProt P30084) -0.134
DNAJB11 (UniProt Q9UBS4) 0.003
EDEM1 (UniProt Q92611) 0.128
DYNLRB1 (UniProt Q9NP97) -0.014
DOCK11 (UniProt Q5JSL3) 0.052
DUSP23 (UniProt Q9BVJ7) -0.072
ECM1 isoform 4 (UniProt Q16610) 0.086
DPP3 (UniProt Q9NY33) -0.126
DPP9 isoform 2 (UniProt Q86TI2) -0.053
DNAJC12 (UniProt Q9UKB3) -0.066
DUSP3 (UniProt P51452) -0.108
DUT (UniProt P33316) -0.048
DPH6 (UniProt Q7L8W6) -0.015
DYNLL2 (UniProt Q96FJ2) -0.087
DNAJC10 (UniProt Q8IXB1) 0.056
DYNLL1 (UniProt P63167) 0.029
DNAJC6 isoform 2 (UniProt O75061) -0.041
EDEM3 (UniProt Q9BZQ6) 0.024
DUS4L (UniProt O95620) -0.049
DNAJC11 (UniProt Q9NVH1) -0.077
DNAJC17 (UniProt Q9NVM6) -0.036

From the supplement of paper PMC10849652
